Experimental data as given in patent US5612336A, “Heterocyclic amide derivatives as tachykinin antagonists” (Merck, Sharp & Dohme Ltd., priority 1992, dated 1997).
Counter-ions that a name gives are not always drawn. Some results were stated once for a whole list of compounds, not compound by compound.

Protein sequences, listed by entry. Tags and fused reporters are not part of them.
UniProt P25103, whole entry: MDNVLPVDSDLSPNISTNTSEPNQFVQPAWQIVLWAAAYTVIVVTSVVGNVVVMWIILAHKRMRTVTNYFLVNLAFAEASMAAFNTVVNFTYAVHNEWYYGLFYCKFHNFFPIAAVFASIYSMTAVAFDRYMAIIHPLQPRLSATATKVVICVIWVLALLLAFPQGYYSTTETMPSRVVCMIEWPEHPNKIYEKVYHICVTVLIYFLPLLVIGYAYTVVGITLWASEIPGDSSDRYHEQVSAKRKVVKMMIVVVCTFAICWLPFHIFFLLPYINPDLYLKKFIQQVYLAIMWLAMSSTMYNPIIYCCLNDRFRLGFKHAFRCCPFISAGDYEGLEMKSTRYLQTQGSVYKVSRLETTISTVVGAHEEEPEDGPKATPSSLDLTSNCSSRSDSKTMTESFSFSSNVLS

molecular target: human NK1R (Homo sapiens, UniProt P25103); details: radiolabelled substance P; method of EP 0 528 495; read-out: IC50 (concentration of test compound required to reduce by 50% the amount of radiolabelled substance P binding to human NK1R)

Compound	IC50 [nM]
O=C(Cc1c[nH]cn1)NC(Cc1c[nH]c2ccccc12)C(=O)CCc1cc(C(F)(F)F)cc(C(F)(F)F)c1 (centres unmarked) [Example 3, 5-(3,5-Bistrifluoromethylphenyl)-2-((4-imidazolyl)acetamido)-1-(3-indolyl)-3-pentanone Hydrochloride]	< 100
O=C(Cc1ccccn1)NC(Cc1c[nH]c2ccccc12)C(=O)CCc1cc(C(F)(F)F)cc(C(F)(F)F)c1 (centres unmarked) [Example 5, 5-(3,5-Bistrifluoromethylphenyl)-1-(3-indolyl)-2-((2-pyridyl)acetamido)-3-pentanone Hydrochloride]	< 100
CN1CCN(CC(=O)NC(Cc2c[nH]c3ccccc23)C(=O)CCc2cc(C(F)(F)F)cc(C(F)(F)F)c2)CC1 (centres unmarked) [Example 6, 5-(3,5-Bistrifluoromethylphenyl)-1-(3-indolyl)-2-((4-methylpiperazinyl)acetamido)-3-pentanone Hydrochloride]	< 100
O=C(CCCN1CC2CCC(CC2)C1)NC(Cc1c[nH]c2ccccc12)C(=O)CCc1cc(C(F)(F)F)cc(C(F)(F)F)c1 (centres unmarked) [Example 9, 5-(3,5-Bistrifluoromethylphenyl)-1-(3-indolyl)-2-(4-(3-(3-azabicyclo[3.2.2]nonyl))butyramido)-3-pentanone Hydrochloride]	< 100

More lines, now with the values ahead:

IC50 [nM]	Compound
< 100	O=C(Cc1ccncc1)NC(Cc1c[nH]c2ccccc12)C(=O)CCc1cc(C(F)(F)F)cc(C(F)(F)F)c1 (centres unmarked) [Example 2, 5-(3,5-Bistrifluoromethylphenyl)-1-(3-indolyl)-2-((4-pyridyl)acetamido)-3-pentanone Hydrochloride]
< 100	O=C(Cc1cccnc1)NC(Cc1c[nH]c2ccccc12)C(=O)CCc1cc(C(F)(F)F)cc(C(F)(F)F)c1 (centres unmarked) [Example 4, 5-(3,5-Bistrifluoromethylphenyl)-1-(3-indolyl)-2-((3-pyridyl)acetamido)-3-pentanone Hydrochloride]
< 100	O=C(CCN1CCCCC1)NC(Cc1c[nH]c2ccccc12)C(=O)CCc1cc(C(F)(F)F)cc(C(F)(F)F)c1 (centres unmarked) [Example 8, 5-(3,5-Bistrifluoromethylphenyl)-1-(3-indolyl)-2-(3-(piperidin-1-yl)propionamido)-3-pentanone]
< 100	O=C(Cc1ccncc1)NC(Cc1csc2ccccc12)C(=O)CCc1cc(C(F)(F)F)cc(C(F)(F)F)c1 (centres unmarked) [Example 10, 5-(3,5-Bistrifluoromethylphenyl)-1-(3-benzo[b]thienyl)-2-((4-pyridyl)acetamido)-3-pentanone]
